Test: general procedure: Fmoc solid-phase peptide synthesis; 2-chlorotrityl resin (Annaspec, 1.58 mmol/g); HATU/NMM
Details: TFA salt converted to HCl salt (Example 1)

Row | Substance | step yield (coupling step) [%] | step yield (late stage modification step) [%]
1 | tert-Butyl((S)-1-(((S)-1-((2S,4S)-4-allyl-2-(((S)-1-(((S)-1-(cyclopropanesulfonamido)-1-oxo-3-(4-(prop-2-yn-1-yloxy)phenyl)propan-2-yl)amino)-3-(naphthalen-2-yl)-1-oxopropan-2-yl)carbamoyl)pyrrolidin-1-yl)-3,3-dimethyl-1-oxobutan-2-yl)amino)-1-oxopropan-2-yl)(methyl)carbamate | 76 | –
2 | (S)-2-((2S,4S)-4-Allyl-1-((S)-2-((S)-2-((tert-butoxycarbonyl)(methyl)amino) propanamido)-3,3-dimethylbutanoyl)pyrrolidine-2-carboxamido)-3-(naphthalen-2-yl)propanoic acid | – | 98
3 | (S)-Methyl 2-((2S,4S)-4-allyl-1-((S)-2-((S)-2-((tert-butoxycarbonyl)(methyl)amino)propanamido)-3,3-dimethylbutanoyl)pyrrolidine-2-carboxamido)-3-(naphthalen-2-yl)propanoate | 64 | –
